Reference: publication PMC11199634
Results are given in words; binding and its absence hold for the method and conditions named. In cells and extracts the contact can be indirect. Some entries that bind do so weakly or less than the wild type. For some assays here: Sequences can lack the tags named with a protein.

Chains of the proteins cited; added tags and fusions are not shown.
UniProt P36873: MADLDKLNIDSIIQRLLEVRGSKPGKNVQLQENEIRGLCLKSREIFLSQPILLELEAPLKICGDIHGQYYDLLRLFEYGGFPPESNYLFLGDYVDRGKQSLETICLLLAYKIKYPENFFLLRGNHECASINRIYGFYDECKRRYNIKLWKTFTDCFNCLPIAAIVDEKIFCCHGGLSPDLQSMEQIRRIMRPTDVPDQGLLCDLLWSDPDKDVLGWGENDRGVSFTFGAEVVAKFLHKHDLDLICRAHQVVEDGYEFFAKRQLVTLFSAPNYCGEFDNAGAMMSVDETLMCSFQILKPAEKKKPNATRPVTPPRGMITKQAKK

Experiments:
mClover-PP1-WT = mClover-PP1-WT (UniProt P36873); assay: co-IP; mClover-trap of mClover-PP1 fusions from HeLa FlpIn T-REx cell lines induced 24 h with Dox; endogenous SDS22 and I3 by immunoblot
Strep-PP1γ [1] = molecular target: Strep-PP1γ (UniProt P36873); assay: co-IP; Strep-trap of nascent Strep-PP1γ (HeLa FlpIn T-REx, Dox 1 h); control cells and cells after knockdown of I3
EGFP-I3-WT (human) = molecular target: T1, EGFP-I3-WT (human) (UniProt O60927); assay: co-IP; EGFP-trap (anti-EGFP nanobodies on agarose, 2 h, 4 °C) of transiently expressed EGFP fusions from HEK293T lysates (20 mM Tris pH 7.9, 0.3 M NaCl, 0.5% Triton X-100); endogenous partners by immunoblot
T1 sequence: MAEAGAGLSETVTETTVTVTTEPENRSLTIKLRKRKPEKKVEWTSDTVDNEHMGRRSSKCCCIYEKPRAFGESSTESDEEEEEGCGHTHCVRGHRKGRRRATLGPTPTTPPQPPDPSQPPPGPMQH

EGFP-I3-(1–84) (human) = molecular target: T2, EGFP-I3-(1–84) (human) (UniProt O60927); assay: as above
T2 sequence: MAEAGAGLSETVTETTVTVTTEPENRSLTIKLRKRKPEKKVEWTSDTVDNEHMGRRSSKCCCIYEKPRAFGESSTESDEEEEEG

Strep-PP1γ [2] = molecular target: Strep-PP1γ (UniProt P36873); assay: co-IP; transiently expressed EGFP-SDS22 variants co-precipitated with Strep-PP1γ induced with Dox for 0 to 24 h in HeLa FlpIn T-REx cells

B1: SDS22 (endogenous, HeLa) (protein, UniProt Q15435 1-360)
chain: MAAERGAGQQQSQEMMEVDRRVESEESGDEEGKKHSSGIVADLSEQSLKDGEERGEEDPEEEHELPVDMETINLDRDAEDVDLNHYRIGKIEGFEVLKKVKTLCLRQNLIKCIENLEELQSLRELDLYDNQIKKIENLEALTELEILDISFNLLRNIEGVDKLTRLKKLFLVNNKISKIENLSNLHQLQMLELGSNRIRAIENIDTLTNLESLFLGKNKITKLQNLDALTNLTVLSMQSNRLTKIEGLQNLVNLRELYLSHNGIEVIEGLENNNKLTMLDIASNRIKKIENISHLTELQEFWMNDNLLESWSDLDELKGARSLETVYLERNPLQKDPQYRRKVMLALPSVRQIDATFVRF
- binding (mClover-PP1-WT): binds
- binding (Strep-PP1γ [1]): binds

B2: SDS22 (endogenous, HEK293T) (protein, UniProt Q15435 1-360)
chain: MAAERGAGQQQSQEMMEVDRRVESEESGDEEGKKHSSGIVADLSEQSLKDGEERGEEDPEEEHELPVDMETINLDRDAEDVDLNHYRIGKIEGFEVLKKVKTLCLRQNLIKCIENLEELQSLRELDLYDNQIKKIENLEALTELEILDISFNLLRNIEGVDKLTRLKKLFLVNNKISKIENLSNLHQLQMLELGSNRIRAIENIDTLTNLESLFLGKNKITKLQNLDALTNLTVLSMQSNRLTKIEGLQNLVNLRELYLSHNGIEVIEGLENNNKLTMLDIASNRIKKIENISHLTELQEFWMNDNLLESWSDLDELKGARSLETVYLERNPLQKDPQYRRKVMLALPSVRQIDATFVRF
- binding (EGFP-I3-WT (human)): binds
- binding (EGFP-I3-(1–84) (human)): binds

B3: EGFP-tagged SDS22-WT (in HeLa) (protein, UniProt Q15435 1-360)
chain: MAAERGAGQQQSQEMMEVDRRVESEESGDEEGKKHSSGIVADLSEQSLKDGEERGEEDPEEEHELPVDMETINLDRDAEDVDLNHYRIGKIEGFEVLKKVKTLCLRQNLIKCIENLEELQSLRELDLYDNQIKKIENLEALTELEILDISFNLLRNIEGVDKLTRLKKLFLVNNKISKIENLSNLHQLQMLELGSNRIRAIENIDTLTNLESLFLGKNKITKLQNLDALTNLTVLSMQSNRLTKIEGLQNLVNLRELYLSHNGIEVIEGLENNNKLTMLDIASNRIKKIENISHLTELQEFWMNDNLLESWSDLDELKGARSLETVYLERNPLQKDPQYRRKVMLALPSVRQIDATFVRF
- binding (Strep-PP1γ [2]): binds weakly
